For test [1], the target named is hPTK7-His (soluble His-tagged human PTK7 extracellular domain) (human) (UniProt Q13308). The experiment in a line: screening on immobilized human PTK7; members named in paragraph 345.
For test [2] the target is unchanged. The experiment in a line: SPR, Biacore.
The target is the same in test [3]. Put plainly: Biacore surface plasmon resonance, antigen concentration series.
Test [4] has the same target. The experiment in a line: ForteBio bio-layer interferometry, one antigen concentration (400 nM).

Protein sequences, listed by entry. Tags and fused reporters are not part of them. Lines headed by an entry give the natural chain unless they say otherwise; changes in a name come on top.
UniProt Q13308: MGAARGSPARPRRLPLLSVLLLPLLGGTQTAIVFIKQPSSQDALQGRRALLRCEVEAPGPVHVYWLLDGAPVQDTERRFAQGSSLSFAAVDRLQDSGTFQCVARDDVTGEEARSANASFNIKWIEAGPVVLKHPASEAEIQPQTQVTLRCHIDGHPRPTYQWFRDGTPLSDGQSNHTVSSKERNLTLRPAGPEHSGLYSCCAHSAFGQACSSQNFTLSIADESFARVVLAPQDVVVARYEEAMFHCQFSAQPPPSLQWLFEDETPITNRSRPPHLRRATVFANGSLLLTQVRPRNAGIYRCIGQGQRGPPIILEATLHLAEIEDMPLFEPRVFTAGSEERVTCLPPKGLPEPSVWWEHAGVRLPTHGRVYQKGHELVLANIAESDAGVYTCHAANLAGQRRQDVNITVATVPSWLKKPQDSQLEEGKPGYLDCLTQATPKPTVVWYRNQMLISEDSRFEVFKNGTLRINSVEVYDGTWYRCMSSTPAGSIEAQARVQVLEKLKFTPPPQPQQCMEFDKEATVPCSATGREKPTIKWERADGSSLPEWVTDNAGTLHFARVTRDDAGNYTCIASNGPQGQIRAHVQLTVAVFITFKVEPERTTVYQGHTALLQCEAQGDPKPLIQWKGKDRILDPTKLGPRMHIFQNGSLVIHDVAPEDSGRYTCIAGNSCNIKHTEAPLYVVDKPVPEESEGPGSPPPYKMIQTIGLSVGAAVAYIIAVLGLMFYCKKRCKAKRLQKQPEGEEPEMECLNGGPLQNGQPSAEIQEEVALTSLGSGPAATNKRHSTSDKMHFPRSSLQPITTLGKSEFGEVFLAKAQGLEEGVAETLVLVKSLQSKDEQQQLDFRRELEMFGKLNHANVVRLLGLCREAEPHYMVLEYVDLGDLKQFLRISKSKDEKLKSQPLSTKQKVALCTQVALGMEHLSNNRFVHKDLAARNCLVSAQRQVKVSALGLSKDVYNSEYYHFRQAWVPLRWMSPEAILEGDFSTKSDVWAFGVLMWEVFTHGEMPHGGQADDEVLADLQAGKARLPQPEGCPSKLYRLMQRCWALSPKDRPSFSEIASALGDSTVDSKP

Results are given in words; binding and its absence hold for the method and conditions named. Some binding calls cover weakened binding; strength is not graded here.

The text below walks through data of patent US20180162952A1.

B1: SC6.19 (antibody, V domains shown)
VH: EVKLLESGGGLVQPGGSLRLSCAASGFDFSKDWMSWVRQAPGKGLEWIGEINPDSSTINYAPALKDKFIISRENAKNTLYLQMNKVRSEDTALYYCARWSTGLDYWGQGTTLTVSS
VL: DIVMTQSPSSLSVSAGEKVTMSCKSSQSLLNSGNPKNYLAWYQQKPGQPPKLLIYGASTRGSGVPDRFTGSGSGTDFTLTISSVQAEDLAVYYCQNDHTFPYTFGGGTKLEIKR
For the molecule B1, the binding entry in test [1] is reported as “binds”.

B2: SC6.3 (antibody, V domains shown)
VH: EVKLLESGGGLVQPGGSLKLSCAASGFDFSKDWMSWVRQAPGKGLEWIGEINPDSRTINYAPSLKDKFIISRENAKNTLYLQMSKVRSEDTALYYCARWDYDGGMDYWGQGTSVTVSS
VL: DIVMTQSPSSLSVSAGEKVTMSCKSSQSLLNGGNQQNSLAWYQQKPGQPPKLLIYGASTRESGVPDRFTGSGSGTDFALTISSVQAEDLAVYYCQNDHTYPYTFGGGTELEIKR
In the case of B2, the binding entry in test [1] was “binds”.

B3: SC6.7 (antibody, V domains shown)
VH: QVQLQQSGAELGRPGASVKLSCKDSGYTITIYWMQWVKQRPGQGLEWIGAIYPGDGDTRYPQKFKGKSTLSADKSSNTASMHLSSLASDDSAVYYCSRGGSTNYDYDGFAYWGQGTLVTVSA
VL: DIQMTQSPASLSVSVGETVTITCRASENIYSNLAWYQQKQGKSPQLLVNAATNLADGVSSRFRGSGSGTQYSLKINSLQSEDFGSYYCQHFWITPFTFGSGTKLERK
For the molecule B3, the binding result in test [1] is given as “binds”.

B4: SC6.24 (antibody, V domains shown)
VH: QVQLQQSGPEVVRPGVSVKISCKGSGYTFTDYAVHWVKLSHAKSLEWIGVISTYNDYTYNNQDFKGKATMTVDKSSSTAYMELARLTSEDSAIYYCARGNSYFYALDYWGQGTSVTVSS
VL: DIVLTQSPASLAVSLGQRATISCRASESVDSYGKSFMHWYQQRPGQPPKLLIYRASNLESGIPARFSGSGSRTDFTLTINPVEADDVATYYCQQSNEDPWTFGGGTKLEIK
For B4, in test [1], the binding entry is “binds”.

B5: SC6.20 (antibody, V domains shown)
VH: QVQLQQSGPELVKPGASVKISCKASGYPFSTSWMNWVKQRPGKGLEWIGRIYLGDGDTNYNGKFTGKATLTADKSSSTVYMQLSSLTSEDSAVYFCARWRGDYDYWGQGTTLTVSS
VL: DIQMTQTPSSLSASLGDRVTINCRASQGLSNYLNWYQQKPDGTVKLLIYYASILHSGVPSRFTGSGSGTDYSLTISTLEQEDIGTYFCQQGNTLPWTFGGGTKLEIK
Regarding B5, the binding result in test [1] is “binds”.

B6: SC6.41 (antibody, V domains shown)
VH: EVQLQQSGAESVRSGASVKLSCTASGLNIKDYYMHWVNLRPEQGLEWIGWIDPENGDTEYAPEFQGKATMTADTSSNTAYLQLSSLTSEDTAVYYCNACNYGSAYGYWGQGTTLTVSS
VL: DIVLTQATPSVPVTPGESVSISCRSSKSLLHTKGDTYLYWFLQRPGQSPQLLIYRMSNLASGVPDRFSGSGSGTVFTLRISRVEAEDVGVYYCMQHLEYPFTFGSGTKLEIKR
Consider B6, for which the binding result in test [1] is given as “binds”.

B7: hSC6.41 (antibody, human IgG1, V domains shown)
VH: QVQLVQSGAEVKKPGASVKVSCKASGYTFKDYYMHWVRQAPGQGLEWMGWIDPENGDTEYAPEFQGRVTMTRDTSTSTVYMELSSLRSEDTAVYYCNACNYGSAYGYWGQGTTLTVSS
VL: DIVMTQSPLSLPVTPGEPASISCRSSKSLLHTKGDTYLYWFLQKPGQSPQLLIYRMSNRASGVPDRFSGSGSGTDFTLKISRVEAEDVGVYYCMQHLEYPFTFGQGTKLEIKR
In the case of B7, in test [2], the binding result was “binds”.

B8: SC6.58 (antibody, V domains shown)
VH: EVKLLESGGGLVQPGGSLKLSCAASGFDFSRYWMSWVRQAPGKGLEWIGDLNPDSSAINYTPSLKDKFIISRDNAKNTLYLQMSKVRSEDTALYYCTLITTLVPYTMDFWGQGTSVTVSS
VL: ETTVTQSPASLSMAIGEKVTIRCITNTDIDDDMNWYQQKPGEPPKLLISEGNGLRPGVPSRFSSSGYGTDFVFTIENMLSEDVADYYCLQSDNLPLTFGSGTKLEIK
For the molecule B8, the binding entry in test [1] is on record as “binds”.

B9: SC6.21 (antibody, V domains shown)
VH: DVQLQESGPGLVKPSQTLSLTCSVPDYSITSDYHWHWIRQFPGNKLEWMGYISSRGSTNYNPSLKNRISITHDTSENQFFLKLTSVTTEDSATYYCAGLSQLALDYWGQGTTLTVSS
VL: DIVMSQSPSSLAVSVGEKVTLSCKSSQSLLYSSTQNNYLAWYQQTPGQSPKLLIYWASTRESGVPDRFTGSGSGTDFTLTISSVKAEDLAVYYCQQYYSYPWTFGGGTKLEIK
Take B9: the binding result in test [1] was “binds”.

B10: SC6.23 (antibody, V domains shown)
VH: QVTLKESGPGILKPSQTLSLTCSFSGFSLSTSNMGVGWIRQPSGKGLEWLAHIWWDDDKYYNPSLKSQLTISKDTSRNQVFLKITSVDTEDTATYYCVRSNYGYAWFAYWGQGTLVTVSA
VL: DIKMTQSPSSMYASLGERVTITCKASQDIYPYLNWFQQKPGKSPKTLIYRTNRLLDGVPSRFSGSGSGQDYSLTISSLDYEDMGIYYCLQYDEFPLTFGAGTKLELK
Regarding B10, the binding result in test [1] and in test [3] was “binds” in each case.

B11: SC6.14 (antibody, V domains shown)
VH: QVQLQQPGAELVKPGASVKLSCKASGYTFTSYWMHWVKQRPGQGLEWIGEINPSNGRSNYNEKFKSKATLTVDKSSSTAYMQLSSLTSEDSAVYFCAHYYDGSYGFFDYWGQGTTLTVSS
VL: SIVLTQSLKFLLVSAGDRVTMTCKASQSVTNDVAWYQQKPGQSPKLLIYYASKHYTGVPDRFTGSGYGTDFTFTISTVQAEDLAVYFCQQDYSSPYTFGGGTKLEIKR
With B11, the binding entry in test [1] is “binds”.

B12: hSC6.58 (antibody, human IgG1, V domains shown)
VH: EVQLVESGGGLVQPGGSLRLSCAASGFDFSRYWMSWVRQAPGKGLEWIGDLNPDSSAINYVDSVKGRFTISRDNAKNSLYLQMNSLRAEDTAVYYCTLITTLVPYTMDFWGQGTSVTVSS
VL: ETTLTQSPAFMSATPGDKVNISCITNTDIDDDMNWYQQKPGEAAILLISEGNGLRPGIPPRFSGSGYGTDFTLTINNIESEDAAYYFCLQSDNLPLTFGSGTKLEIKR
In the case of B12, the binding result in test [2] was “binds”.

B13: SC6.15 (antibody, V domains shown)
VH: EVKLLESGGGLVQPGGSLKVSCTASGFDFSRYWMSWVRQAPGKGLEWIGEINPDSSTINYTPSLKDKFIISRDNAKNTLYLQMSKVRSEDTALYYCARPGYGNLFVYWGQGTLVTVSS
VL: DIVLTQSPASLAVSLGQRATISCRASQSVSTSTSIYMHWYQQKPGQPPKLLIKYASNLESGVPARFSGSGSGTEITLNIHPVEEEDTATYYCQHSWEIPWTFGGGTKLEIK
On to B13, for which the binding result in test [1] was “binds”.

B14: SC6.29 (antibody, V domains shown)
VH: EVKLLESGGGLVQPGGSQKLSCAASGFDFSRYWMSWVRQAPGKGLEWIGEINPDSSTVNYTPSLKDKFIISRDNAKNTLYLQMSKVRSEDTALYYCARPGYGNLFVYWGQGTLVTVSA
VL: DIVLTQSPASLTVSLGQRATISCRASQSVSTSTFNYMNWYQQKLGQPPKLLIKYASNLESGVPARFSGSGSGTDFTLNIHPVEEEDIATYYCQHSWEIPWTFGGGTKLEIK
For the molecule B14, the binding result in test [1] is “binds”.

B15: SC6.2.35 (antibody, V domains shown)
VH: QVQMQQSGAELMKPGASVKLSCKATGYTFTGYWIEWVKQRPGHGLEWIGEILPGSGRSNSNEKFKGKATFTADTSSNTAYMQLSSLTTEDSAIYYCARGKLSWGQGTLVTVSA
VL: DIVLTQSPASLAVSLGQRATISCRASESVDSFGNSFMHWYQQKPGQPPKLLIYAASNLGSGVPARFSGSGSGTDFSLNIHPVEEDDSAMYFCQQSKEVPRTFGGGSRLEIKR
For B15, the binding result in test [1] and in test [4] was “binds” in each case.
